The other results are listed elsewhere or left out.
Biological target: T1, OsSMF1 (Oryza sativa, UniProt Q6ZLB0 1-436)
T1 sequence: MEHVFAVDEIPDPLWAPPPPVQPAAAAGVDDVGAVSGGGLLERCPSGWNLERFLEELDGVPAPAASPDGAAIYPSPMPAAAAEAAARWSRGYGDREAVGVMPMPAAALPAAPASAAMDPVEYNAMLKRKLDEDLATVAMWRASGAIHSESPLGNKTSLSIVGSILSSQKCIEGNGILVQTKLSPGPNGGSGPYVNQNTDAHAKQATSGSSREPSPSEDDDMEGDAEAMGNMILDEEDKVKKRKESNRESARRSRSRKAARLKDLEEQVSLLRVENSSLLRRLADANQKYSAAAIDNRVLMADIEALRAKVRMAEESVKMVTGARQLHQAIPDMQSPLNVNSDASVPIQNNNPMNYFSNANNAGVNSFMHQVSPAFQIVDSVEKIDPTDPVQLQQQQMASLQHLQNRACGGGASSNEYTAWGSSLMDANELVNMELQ
Test: protein-binding microarray (RPBM); PBS, 2% BSA, 51.3 ng/ul salmon testes DNA, 50 uM zinc acetate, 200 nM TF, 25 C, 1 h; high values mean tight binding
Details: protein: recombinant; tags: N-terminal polyhistidine and DsRed monomer fusion (pET32a); chain copies: 2; label: CyDye5-dUTP incorporated in the synthesized complementary strand; 3' TTTTT single-stranded linker to array surface; dsDNA, one strand shown
Summary of the method: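 Transcription factors, each fused N-terminally to a polyhistidine tag and DsRed, were expressed in E. coli BL21-CodonPlus and purified on Ni–NTA. A custom Agilent array was made double-stranded by primer extension with Cy5-dUTP and blocked with 2% BSA. It was incubated with 200 nM protein in PBS, 2% BSA, salmon testes DNA and 50 µM zinc acetate at 25 °C for 1 h, then washed. The binding signal is per-feature fluorescence intensity (arbitrary units) read on an Axon 4000B scanner.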

Sequence | binding signal
TAAACAACTTGAGGCACACCACATCACTACCAAGAGAGAGCGGAGTCACCTAGTGCAG | 3510 fluorescence intensity (a.u.)
CCACACACCATTGCCGCATCATCCACCACCGCCTCCTCAGCGGAGTCACCTAGTGCAG | 5210 fluorescence intensity (a.u.)
GGCGGTGGATGGTGGTGCGGCGGCAGGAAGGGCGGGAGCGCGGAGTCACCTAGTGCAG | 3470 fluorescence intensity (a.u.)
TTATCTTGAAGATTCCATAGATAAGATTGCTGACGAGAGTCGGAGTCACCTAGTGCAG | 3910 fluorescence intensity (a.u.)
AGTCAGTCCACACTCCACACCAGTCTCCATCACAGTTTCCCGGAGTCACCTAGTGCAG | 4040 fluorescence intensity (a.u.)
TCGCCGACGACTCACGCCGACACGTCGGAAGTCGTTGGCTCGGAGTCACCTAGTGCAG | 6960 fluorescence intensity (a.u.)
ATCTCGTTCTAAAGGTCGGATATTTATGACGTGTATTAGGCGGAGTCACCTAGTGCAG | 12200 fluorescence intensity (a.u.)
TCAATTGTGGCGTGAAGTACACATAACCCTTGTTGATGGGCGGAGTCACCTAGTGCAG | 3540 fluorescence intensity (a.u.)
GAAGAAGAAGCAGCCATCCGAGTCGTCATCGGCGGCGGCGCGGAGTCACCTAGTGCAG | 4950 fluorescence intensity (a.u.)
GATATGAAAGCAACATTCTTACATGTGGCGGTGAATCATCCGGAGTCACCTAGTGCAG | 4080 fluorescence intensity (a.u.)
CCAAAACACAAAGCAAACGTCCATCTCCGCAGCTTGCTCCCGGAGTCACCTAGTGCAG | 18100 fluorescence intensity (a.u.)
ATGTGCCGATGTATTTGACTTACTGTCCCTGGTAATGAAACGGAGTCACCTAGTGCAG | 3140 fluorescence intensity (a.u.)
TTGGCTTGTTGTTCATAGTTCCTACCAATTGCGTGTCCTCCGGAGTCACCTAGTGCAG | 4480 fluorescence intensity (a.u.)
ACGGGCTGCACGTTGCTACTACCAGCAGTAGCGCCTGCTACGGAGTCACCTAGTGCAG | 33100 fluorescence intensity (a.u.)
TTATTAATATATTTAATTTAATGATCCGAGATAACATATCCGGAGTCACCTAGTGCAG | 35600 fluorescence intensity (a.u.)
CACGGCCTCGTCCTAGGCCCGCCACGTGTAGGCGACGTGTCGGAGTCACCTAGTGCAG | 16200 fluorescence intensity (a.u.)
CCCCGCCCGGTGCAAAATCAGCGCAGATTCGCCCGCCTGTCGGAGTCACCTAGTGCAG | 3350 fluorescence intensity (a.u.)
AATCGATTCGAAATCCACACCGCTACTACGGCTAATTACGCGGAGTCACCTAGTGCAG | 3870 fluorescence intensity (a.u.)
TCCAGCTAATGCCCAACCTCCAAAGCCGACGCGTTGGTTTCGGAGTCACCTAGTGCAG | 3920 fluorescence intensity (a.u.)
CAAACAATATTCTTTTGTGACTAGATCAAGCCGTAGTGTTCGGAGTCACCTAGTGCAG | 3650 fluorescence intensity (a.u.)
TATCTGATGATGTGGGAGGTTCTAAAGGCAGTGCCGCTAGCGGAGTCACCTAGTGCAG | 4220 fluorescence intensity (a.u.)

2 neighbouring records out of the list so far, for reference:
Sequence | binding signal
TTATTAATATATTTAATTTAATGATCCGAGATAACATATCCGGAGTCACCTAGTGCAG | 35600 fluorescence intensity (a.u.)
CACGGCCTCGTCCTAGGCCCGCCACGTGTAGGCGACGTGTCGGAGTCACCTAGTGCAG | 16200 fluorescence intensity (a.u.)

Continued.

Sequence | binding signal
GCGGCTCGCCGTCATATGCGACGTGGCATGCACGACGCCGCGGAGTCACCTAGTGCAG | 14300 fluorescence intensity (a.u.)
GGGCGAATTCGATTGAAGGAGGGAGGAATGTAATATCCCGCGGAGTCACCTAGTGCAG | 29700 fluorescence intensity (a.u.)
CCGCCTCACCACGCTGACCCATCGCCGGCGGTCTCCCTGCCGGAGTCACCTAGTGCAG | 3720 fluorescence intensity (a.u.)
GAGAGAGACACGTACTATGCTAGACTAGACAACACCCAAACGGAGTCACCTAGTGCAG | 3640 fluorescence intensity (a.u.)
GTACAACTTAATTAGACCATAATATCTAAGGTTGCGTAATCGGAGTCACCTAGTGCAG | 4440 fluorescence intensity (a.u.)
GGGCTAACTAACTGTGTGAATAGTCAACGTAGAGACTTATCGGAGTCACCTAGTGCAG | 4010 fluorescence intensity (a.u.)
GTTGCAGTGTGTGTTTTGTGTCACAAGCTAGGCTCGTGTACGGAGTCACCTAGTGCAG | 3520 fluorescence intensity (a.u.)
CCGCCGCCGCCGCCGCCCGAATCCTTCCTGTGACGGCGAGCGGAGTCACCTAGTGCAG | 3340 fluorescence intensity (a.u.)
CCCCACCATGTCCACGCATTCACGCATGCATGCAGATATACGGAGTCACCTAGTGCAG | 3220 fluorescence intensity (a.u.)
ATGTTTTGCTGAGTCTAAGCATGACGTACTTATCAAGATGCGGAGTCACCTAGTGCAG | 3220 fluorescence intensity (a.u.)
AATTTCCAGTGCAACAGCGAGGAGTTAAAACACCAAGGGCCGGAGTCACCTAGTGCAG | 3400 fluorescence intensity (a.u.)
TTCCACGATCCCCACCTCACCAAATCGAATCGACCGCGAACGGAGTCACCTAGTGCAG | 3940 fluorescence intensity (a.u.)
CTCGTAACACCTACACTACACGTATGAGCTGAACCCACCGCGGAGTCACCTAGTGCAG | 5340 fluorescence intensity (a.u.)
AATATTTTACAATTTTAATAATGATGTCATCTATAGCTCTCGGAGTCACCTAGTGCAG | 5700 fluorescence intensity (a.u.)
AACCCGCCCGGCCGCCACACACGCCTCTCTAGCTACCCGGCGGAGTCACCTAGTGCAG | 4040 fluorescence intensity (a.u.)
CCACCACAGTGACCACTCCGCCCGTCTCTCCTCCTGATCGCGGAGTCACCTAGTGCAG | 3810 fluorescence intensity (a.u.)
TCTCGTCGAGAGCTATAATTTCCATATAAAATTTGTCTCACGGAGTCACCTAGTGCAG | 31000 fluorescence intensity (a.u.)
TTGACCACACTCTTTCCGTTCCCCTCCCAAAGGCGTATTTCGGAGTCACCTAGTGCAG | 3590 fluorescence intensity (a.u.)
CCCGCTTCTGCCCTCCTAAGTTCCGTCATCACCGTTATCACGGAGTCACCTAGTGCAG | 4210 fluorescence intensity (a.u.)
TTTAGAAGAACAAAATGCTGACAAATCCTGGTCATTTCTTCGGAGTCACCTAGTGCAG | 5050 fluorescence intensity (a.u.)
AGCTTCTCGTCGAGTGGCGGCGGCGGCGGCGGCGGAGGCTCGGAGTCACCTAGTGCAG | 33700 fluorescence intensity (a.u.)

Reference: paper PMC7819943, “Rice protein-binding microarrays: a tool to detect cis-acting elements near promoter regions in rice”
